No constants are given. Whether binding was seen depends on the method and setting. In cells and extracts the contact can be indirect. Binding can be weak; no strength is given.
Key:
[1] = molecular target: tetherin deletion mutant delCT (20-180 aa of human tetherin) (human) (UniProt Q10589); experiment: co-IP; 293T cells cotransfected with gD-flag and a tetherin mutant; lysates precipitated with the rabbit polyclonal antibody against tetherin, western blot with the flag antibody; Pierce Crosslink Immunoprecipitation Kit
[2] = molecular target: HSV-2 glycoprotein D fused to flag tag (HSV-2) (UniProt Q69467); experiment: co-IP; 293T cells cotransfected with gD-flag and a tetherin mutant; precleared lysates precipitated with anti-flag antibody (isotype control antibody beside it), western blot for tetherin; Pierce Crosslink Immunoprecipitation Kit

The chains behind the UniProt entries cited, without tags or fusion partners. Where a name states a change or a piece, a line headed by the entry shows the natural chain unless it says otherwise. Residues count along the entry.
UniProt Q10589: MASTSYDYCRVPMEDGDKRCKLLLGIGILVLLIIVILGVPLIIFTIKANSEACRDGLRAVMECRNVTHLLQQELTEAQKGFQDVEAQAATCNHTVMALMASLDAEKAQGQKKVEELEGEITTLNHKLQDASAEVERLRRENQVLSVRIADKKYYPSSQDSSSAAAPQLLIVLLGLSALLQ
UniProt Q69467, residues 26-393: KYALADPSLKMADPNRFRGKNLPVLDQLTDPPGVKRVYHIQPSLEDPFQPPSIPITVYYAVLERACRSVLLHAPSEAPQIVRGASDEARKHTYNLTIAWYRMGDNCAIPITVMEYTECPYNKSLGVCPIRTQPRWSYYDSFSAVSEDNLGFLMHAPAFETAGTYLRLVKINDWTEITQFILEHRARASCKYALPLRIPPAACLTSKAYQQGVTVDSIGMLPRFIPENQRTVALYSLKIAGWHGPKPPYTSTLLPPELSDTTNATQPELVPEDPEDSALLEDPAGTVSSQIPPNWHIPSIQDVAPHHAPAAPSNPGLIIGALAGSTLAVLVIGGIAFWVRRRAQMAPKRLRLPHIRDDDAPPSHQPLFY

Row | Substance | binding [1] | binding [2]
1 | HSV-2 glycoprotein D fused to flag tag (from UniProt Q69467 26-393) | binds | 
2 | tetherin deletion mutant delCT (20-180 aa of human tetherin) (from UniProt Q10589) (domain or fragment) |  | binds
